This is one part of the list.

Chains of the proteins cited; added tags and fusions are not shown.
UniProt Q0JBA9, entry or part of it: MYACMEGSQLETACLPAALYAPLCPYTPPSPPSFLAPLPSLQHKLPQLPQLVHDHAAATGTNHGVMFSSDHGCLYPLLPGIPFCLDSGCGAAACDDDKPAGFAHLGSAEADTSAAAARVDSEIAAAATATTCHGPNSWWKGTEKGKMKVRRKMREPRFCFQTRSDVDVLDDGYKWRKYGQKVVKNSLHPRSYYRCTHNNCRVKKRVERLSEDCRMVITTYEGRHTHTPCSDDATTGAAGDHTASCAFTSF

This test addresses OsWRKY34 (Oryza sativa, UniProt Q0JBA9 1-250). The experiment in a line: protein-binding microarray (RPBM); PBS, 2% BSA, 51.3 ng/ul salmon testes DNA, 50 uM zinc acetate, 200 nM TF, 25 C, 1 h; high values mean tight binding. The following applies: protein: recombinant; tags: N-terminal polyhistidine and DsRed monomer fusion (pET32a); label: CyDye5-dUTP incorporated in the synthesized complementary strand; 3' TTTTT single-stranded linker to array surface; dsDNA, one strand shown. The gist of the method:
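Polyhistidine-tagged DsRed fusions of transcription factors, joined at the N-terminus, were expressed in E. coli BL21-CodonPlus and isolated on Ni–NTA. They were incubated at 200 nM for 1 h at 25 °C on a custom Agilent array, double-stranded and BSA-blocked, in PBS with 2% BSA, salmon testes DNA and 50 µM zinc acetate. The binding signal is per-feature fluorescence intensity (arbitrary units) read on an Axon 4000B scanner after washing.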
Regarding “ATATTCTGTTGCTCCTCGTGTTATCTCTGATTTTTTTCTTCGGAGTCACCTAGTGCAG”, the binding signal was 15100 fluorescence intensity (a.u.).
To “GGTTTTGGACCTTTTTTTGTGCCAACCTTGCAATCTTCAACGGAGTCACCTAGTGCAG” belongs 8720 fluorescence intensity (a.u.).
As for “AAAATGGATGTTATATGAATGTGGTTGTATTAAATATATTCGGAGTCACCTAGTGCAG”, the figure is 8660 fluorescence intensity (a.u.).
To “CCTCCCCACTCCGTCTCCGTGGCTCCGTGCCTTCCAAAGCCGGAGTCACCTAGTGCAG” belongs 8490 fluorescence intensity (a.u.); to “CGTCCCCGCAGCCCGCAGCGTAGGTCTCGTTTTTCTTGTCCGGAGTCACCTAGTGCAG”, 8210 fluorescence intensity (a.u.).
“ATCAATTTATCACCCGCTGACTCATCTTTATTGTATCTGCCGGAGTCACCTAGTGCAG”: the binding signal is 8420 fluorescence intensity (a.u.).
In the case of “CTTGGACACTATATATATCCCTCCATACCAGAGCCATAACCGGAGTCACCTAGTGCAG”, the binding signal was 8140 fluorescence intensity (a.u.).
To “AATTAAATTTTTTTTCTTCTACTGCATTGCTTCAACCACTCGGAGTCACCTAGTGCAG” belongs 8710 fluorescence intensity (a.u.); to “AAAGTCCAACCGTGTAGCCCACTTTTTCCTCCATTTCTCACGGAGTCACCTAGTGCAG”, 9560 fluorescence intensity (a.u.); to “CCAACTGATTTCTTCAAGAGCACACATCCAAACAGCGTTCCGGAGTCACCTAGTGCAG”, 8530 fluorescence intensity (a.u.).
As for “ATCTCCACCACGTTTTCCGCACACATAATTTTCAAACTGCCGGAGTCACCTAGTGCAG”, the figure is 9790 fluorescence intensity (a.u.).
To “TTCTATTTTCGTGACAACATTAATATTAAATCTACAGTTTCGGAGTCACCTAGTGCAG” belongs 8730 fluorescence intensity (a.u.); to “CCCGCGTCCTCTTCCCTTTCCAGCCAAACCGACGCCGATGCGGAGTCACCTAGTGCAG”, 8150 fluorescence intensity (a.u.); to “AAGGGTGTATTTATTGGTGCAATAGCGTTTTTGTTTGACCCGGAGTCACCTAGTGCAG”, 8690 fluorescence intensity (a.u.).
As for “AACACTTCCATTAATTCTTGATCGTTTTCTGTCCGCTTTGCGGAGTCACCTAGTGCAG”, the binding signal was 9600 fluorescence intensity (a.u.).
Consider “CCTGTTGACTAGAACGATAGTCATCAACTCATCATTCTCGCGGAGTCACCTAGTGCAG”, for which the binding signal was 9750 fluorescence intensity (a.u.).
As for “TTTCAATTCTTCATCACTGATTTATTCACCAATTAATTCTCGGAGTCACCTAGTGCAG”, the figure is 8520 fluorescence intensity (a.u.); as for “GGTAAAATATGTGCTAAAAAGTCAACGGTGTCAAACATTTCGGAGTCACCTAGTGCAG”, 14400 fluorescence intensity (a.u.).
As for “GCCTCCAACAAACTCAGGTTGTTTCAGGTCATCTTCCCAACGGAGTCACCTAGTGCAG”, the figure is 8050 fluorescence intensity (a.u.).
As for “AAGTCCACTCCTCGCATTCTTTGCTCCATGACGACGACTCCGGAGTCACCTAGTGCAG”, the binding signal was 9570 fluorescence intensity (a.u.).
To “CTGTTGGTTGTGATTGTTGTGGTGGGCACGCTGTTTGAACCGGAGTCACCTAGTGCAG” belongs 11600 fluorescence intensity (a.u.); to “CATATGTGTTCAGCTTTCCTAGCTTCGACCTCTTTTATTTCGGAGTCACCTAGTGCAG”, 10200 fluorescence intensity (a.u.); to “CCCTACACTGTCGCGAGCGCTCTCTCTCTCTCTCTCTCTCCGGAGTCACCTAGTGCAG”, 8140 fluorescence intensity (a.u.).
“CACACAAACTTCCAACATTTCCGTCACATTGTTTCAATTTCGGAGTCACCTAGTGCAG”: the binding signal was 8350 fluorescence intensity (a.u.).
To “ATCAGAATCGACTGGTTCCTCCTTGACTTGCACCTTTGACCGGAGTCACCTAGTGCAG” belongs 10500 fluorescence intensity (a.u.); to “ACCTTTTCCGCGTGTTGTGTCTGTTTGTTGAAGATGAATTCGGAGTCACCTAGTGCAG”, 12600 fluorescence intensity (a.u.); to “CACCCATGGCAATTTTGTAGGCTGCTATATCCTGACAATACGGAGTCACCTAGTGCAG”, 8100 fluorescence intensity (a.u.).
Turning to “AACTTTTGACTGTGGAATGCTGGAGATATCATGATCTTTTCGGAGTCACCTAGTGCAG”, the binding signal was 8140 fluorescence intensity (a.u.).
As for “GGTTTGATTGTTTTTTCGATTGTGTAGAATTTGATTTTTGCGGAGTCACCTAGTGCAG”, the figure is 9240 fluorescence intensity (a.u.); as for “CCCACTGACATATGGGTCCCATTATTTTTATCTTTTTGTTCGGAGTCACCTAGTGCAG”, 9030 fluorescence intensity (a.u.).
In the case of “TTCTAACTTATATCTCGTTTTTCACGTACACGTTTTTTCACGGAGTCACCTAGTGCAG”, the binding signal was 9160 fluorescence intensity (a.u.).
As for “GCATATTTCCATTTTGTTGGTCCTTACTGAACGGCTTCCTCGGAGTCACCTAGTGCAG”, the figure is 9720 fluorescence intensity (a.u.).
As for “GCTACGTTTGTGCCACCTTGTTTGACCCTTTTTCAAGATCCGGAGTCACCTAGTGCAG”, the figure is 11100 fluorescence intensity (a.u.); as for “CCTATTAGGGTTGGGTTTGTTCTCTATTTTATACCCATGGCGGAGTCACCTAGTGCAG”, 8390 fluorescence intensity (a.u.); as for “TTTTCCCACATTTTGCCTTTGCTGCTTTAAAGGGCTGATACGGAGTCACCTAGTGCAG”, 12200 fluorescence intensity (a.u.).
As for “CCTTATTTGGTCGGTGTGATTCTTGCATGAGGGAGGTTATCGGAGTCACCTAGTGCAG”, the figure is 11400 fluorescence intensity (a.u.); as for “GTAAAGGAAAGGAACACGTACGTTTGTGCTCATTGTTGACCGGAGTCACCTAGTGCAG”, 8240 fluorescence intensity (a.u.).
For the sequence “AGAGGGAGAGGGAGGGGTGGCGCTGCGGCGAGAAGTGATGCGGAGTCACCTAGTGCAG”, the binding signal is 10400 fluorescence intensity (a.u.).
As for “GGAGAGATTAGGGTTGGGGAGCGGCGCGCGGTTGGGGAGGCGGAGTCACCTAGTGCAG”, the figure is 10500 fluorescence intensity (a.u.).
As for “CCACGCCAATTTGAATCTGTTACTTGCTTGAATCTCCGTGCGGAGTCACCTAGTGCAG”, the figure is 8550 fluorescence intensity (a.u.); as for “TTTTTCGCACGTTCTCTTTCGCCCTGTTTTTTTTGAAAGACGGAGTCACCTAGTGCAG”, 13300 fluorescence intensity (a.u.); as for “GCCATCCTCTTCCTTCGCCGCCGGTCCACTCACCCCTAACCGGAGTCACCTAGTGCAG”, 9920 fluorescence intensity (a.u.).
To “GAGAAGAATATAACCCGATCGTCTCTGCCTTCCATTTTGCCGGAGTCACCTAGTGCAG” belongs 9990 fluorescence intensity (a.u.); to “ATCTGAGCAGTACACTTTTCATCCGACGGTCCACATTGAACGGAGTCACCTAGTGCAG”, 9810 fluorescence intensity (a.u.); to “ATCATTTATCTATATGTTTTTTCAACGCCGATTCAAACCCCGGAGTCACCTAGTGCAG”, 8320 fluorescence intensity (a.u.).
“AAATTCGACTCCGCATTCCATACGCACACAATATCTCCCTCGGAGTCACCTAGTGCAG”: the binding signal was 8850 fluorescence intensity (a.u.).
As for “TCTGTTTTTTTTTCATTTTTCAGAAATTTCGCCCGCAATTCGGAGTCACCTAGTGCAG”, the figure is 8120 fluorescence intensity (a.u.).
To “CACTAACTCTCTCTCTCCATTTTCTTTTTCCCTCCGACGGCGGAGTCACCTAGTGCAG” belongs 9630 fluorescence intensity (a.u.).
To “CGTTGTTCCTCAGTTCGGTACTTCTTCTTCCTTCACTCTCCGGAGTCACCTAGTGCAG” belongs 8350 fluorescence intensity (a.u.); to “GAGGGTGGTGGATCTGTCGCCGTAGCCCGTCGCCTCCAACCGGAGTCACCTAGTGCAG”, 8140 fluorescence intensity (a.u.); to “CCCGGCCCATCTCTCTGGCTCGCACTCCGCCTCCGCCACCCGGAGTCACCTAGTGCAG”, 10500 fluorescence intensity (a.u.).
Turning to “CTGCTAGATGTTCCACCCATTGCAGTGGTTTGGTTTTCACCGGAGTCACCTAGTGCAG”, the binding signal was 8620 fluorescence intensity (a.u.).
“CCCACCACCCAGCCACACTCCCACTTTCTCTCTCATCTCACGGAGTCACCTAGTGCAG”: the binding signal was 12600 fluorescence intensity (a.u.).
As for “TAGGGTTTGGATGGATAGGGTATATGAGGGTAATTTAGGCCGGAGTCACCTAGTGCAG”, the figure is 8450 fluorescence intensity (a.u.).

For the origin of these results see article PMC7819943, “Rice protein-binding microarrays: a tool to detect cis-acting elements near promoter regions in rice”.
